{"source": "PubChem BioAssay AID662", "about": "(National Center for Advancing Translational Sciences (NCATS), 2007)", "note": "This is one part of the list. The main result of the screen is listed elsewhere. These columns were measured beside it and carry no call. Compounds called inactive in the main read-out are mostly missing here. Potencies come from curve fits of mixed quality, noted in brackets.", "data": [{"assay": "Cell signaling CRE-BLA (Fsk stim)", "conditions": "CHO CRE-bla reporter (cAMP response element driving beta-lactamase), forskolin EC10, beta-lactamase ratio; measured here: 460 nm blue channel", "in_short": "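The 460nm/530nm emission ratio after CCF4 loading defined %Activity, from which AC50 values were obtained. CRE-bla CHO cells received compound dilution series together with an EC10 level of NKH 477 for 3 hours at 37 degrees Celsius.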", "values": [{"smiles": "Nc1c(C(=O)OCC2CCCO2)c2nc3ccccc3nc2n1C1CCCC1", "note": "(configuration not stated)", "AC50": "3.16 µM [rising, full curve]"}, {"smiles": "Cn1c(=O)c2nnn(/N=C(\\c3ccccc3)C3CC3)c2n(C)c1=O", "AC50": "25.1 µM [rising, single point]"}, {"smiles": "O=C(CS(=O)(=O)Cc1ccccc1)N1CCc2ccccc21", "AC50": "5.01 µM [falling, single point]"}, {"smiles": "O=c1c(-c2cc(F)cc(F)c2)nc2cnc(N3CCOCC3)nc2n1Cc1cccs1", "AC50": "0.631 µM [rising, full curve]"}, {"smiles": "CN(CCCNC(=O)C1CCN(S(=O)(=O)N2CCC3(CC2)OCCO3)CC1)Cc1ccccc1", "AC50": "5.01 µM [falling, single point]"}, {"smiles": "Cc1c(C(=O)OCCOC(C)C)[nH]c2c1C(=O)CC(c1ccco1)C2", "note": "(configuration not stated)", "AC50": "0.631 µM [rising, full curve]"}, {"smiles": "Cc1ccc(NC(=O)OCC(F)(F)C(F)F)cc1NC(=O)OCC(F)(F)C(F)F", "AC50": "0.631 µM [falling, full curve]"}, {"smiles": "Cc1cc(NC(=O)CSc2nc3ccsc3c(=O)n2Cc2ccccn2)n[nH]1", "AC50": "12.6 µM [rising, single point]"}, {"smiles": "CN(C)c1ccc(NC(=O)Cn2ncn3c(cc4ccccc43)c2=O)cc1", "AC50": "3.98 µM [falling, full curve]"}, {"smiles": "CCCCn1c(=O)[nH]c(=O)c2c1nc(CN1C(=O)c3ccccc3S1(=O)=O)n2CCC", "AC50": "12.6 µM [rising, partial curve]"}, {"smiles": "Cc1ccccc1Cn1nnc(C(=O)Nc2cccc(C)c2C)c1N", "AC50": "0.794 µM [falling, full curve]"}, {"smiles": "O=C(CN1C2CCCC1CC(NC(=O)c1ccco1)C2)Nc1ccccc1C(F)(F)F", "note": "(configuration not stated)", "AC50": "3.98 µM [rising, single point]"}, {"smiles": "CN(C)c1nc(SCCOC(=O)c2ccccc2)nc(N(C)C)n1", "AC50": "12.6 µM [rising, single point]"}, {"smiles": "O=C(CSc1nc2ccccc2c(=O)n1C1CC1)NCc1ccccc1", "AC50": "0.251 µM [falling, partial curve]"}, {"smiles": "O=C(CCn1ccc2ccccc21)Nc1ccc(N2CCOCC2)cc1", "AC50": "0.0251 µM [falling, full curve, poor fit]"}, {"smiles": "CCOC(=O)c1nn(-c2ccccc2)c(C(=O)OCC)c1N", "AC50": "10 µM [rising, single point]"}, {"smiles": "COc1ccc(C)cc1NC(=O)CSc1nnnn1Cc1ccccc1", "AC50": "5.01 µM [falling, single point]"}, {"smiles": "O=C1Nc2ccc(S(=O)(=O)N3CCCCCC3)c3cccc1c23", "AC50": "10 µM [rising, partial curve]"}, {"smiles": "CCNc1c2c3c(cccc3n(C)c1=O)C(=O)c1ccccc1-2", "AC50": "2 µM [rising, full curve, poor fit]"}, {"smiles": "CN1CCN(c2nc(-c3ccccc3)c3cc(Cl)ccc3n2)CC1", "AC50": "6.31 µM [rising, partial curve]"}, {"smiles": "Cc1nn(CC(O)Cn2c3c(c4ccccc42)CCN(C)C3=O)c(C)c1Br", "note": "(configuration not stated)", "AC50": "25.1 µM [falling, single point]"}, {"smiles": "CCOC(=O)c1sc(NCc2ccco2)c(-c2nc3ccccc3s2)c1N", "AC50": "0.158 µM [falling, full curve]"}, {"smiles": "Cn1c(=O)c2c(nc(Br)n2CC(=O)C23CC4CC(CC(C4)C2)C3)n(C)c1=O", "AC50": "10 µM [rising, partial curve]"}, {"smiles": "O=C(c1ccncc1)N1CCC2(CCCN(c3ncccn3)C2)CC1", "AC50": "0.501 µM [falling, full curve, poor fit]"}, {"smiles": "CCN1CCN(c2ncc(C(=O)Nc3ccccc3C(=O)OC)c3ccccc23)CC1", "AC50": "7.94 µM [rising, partial curve]"}, {"smiles": "CCCn1c(CN2CCCCC2CC)nc2c1c(=O)n(C)c(=O)n2C", "note": "(configuration not stated)", "AC50": "12.6 µM [rising, single point]"}, {"smiles": "CCn1cc(C(=O)OCC(=O)OC2CC(C)CCC2C(C)C)c(=O)c2ccc(C)nc21", "note": "(configuration not stated)", "AC50": "25.1 µM [rising, single point]"}, {"smiles": "O=C(O)c1cccnc1SCCc1ccccc1", "AC50": "20 µM [falling, partial curve]"}, {"smiles": "CCOc1ccc(OCC)c(NC(=O)c2[nH]c(C)c(C(C)=O)c2C)c1", "AC50": "25.1 µM [rising, single point]"}, {"smiles": "CN(C)/C=N/c1c(C#N)cnn1-c1ccc(C(F)(F)F)cn1", "AC50": "20 µM [rising, single point]"}, {"smiles": "Cc1ccc(-c2csc3nnc(SCc4csc(C)n4)n23)cc1", "AC50": "12.6 µM [rising, single point]"}, {"smiles": "Cc1sc2nc(C(C)C)nc(SCC(=O)N3CCN(C(=O)c4ccco4)CC3)c2c1C", "AC50": "7.94 µM [rising, partial curve]"}, {"smiles": "CCn1c(SCC#N)nc2c(c1=O)C1(CCCC1)Cc1ccccc1-2", "AC50": "10 µM [rising, partial curve]"}, {"smiles": "O=C(O)C(Cc1ccccc1)Cc1ccccc1", "AC50": "5.01 µM [falling, single point]"}, {"smiles": "Nc1ccc2c(c1)C(=O)c1ccccc1C2=O", "AC50": "3.16 µM [rising, partial curve]"}, {"smiles": "COc1ccc(C)cc1NC(=O)CSc1nnc(-c2ccccn2)n1Cc1ccco1", "AC50": "1.58 µM [rising, full curve]"}, {"smiles": "COc1cc(C2N(c3ccccc3)CCN2c2ccccc2)cc(OC)c1OC", "AC50": "12.6 µM [falling, single point]"}, {"smiles": "COc1ccc(OC)c(-c2cc(C(=O)Nc3c(C)n(C)n(-c4ccccc4)c3=O)no2)c1", "AC50": "7.94 µM [rising, partial curve]"}, {"smiles": "c1csc(Cc2nn3c(-c4n[nH]c5c4CCC5)nnc3s2)c1", "AC50": "25.1 µM [rising, single point]"}, {"smiles": "Nc1c(C(=O)NCCN2CCOCC2)c2nc3ccccc3nc2n1CCc1ccccc1F", "AC50": "12.6 µM [rising, partial curve]"}, {"smiles": "CCOC(=O)c1c(C)[nH]c(C(=O)COC(=O)c2ccc(F)c(S(=O)(=O)N3CCOCC3)c2)c1C", "AC50": "7.94 µM [rising, partial curve]"}, {"smiles": "COc1cc2c(cc1OC)-c1cc(OCCN3CCOCC3)nc(=O)n1CC2", "AC50": "3.98 µM [rising, full curve]"}, {"smiles": "CC(=O)N1c2ccccc2C(=O)OC1c1cccnc1", "note": "(configuration not stated)", "AC50": "0.631 µM [rising, full curve]"}, {"smiles": "c1ccc(CN2CCN(c3nc4ccccc4n4cnnc34)CC2)cc1", "AC50": "10 µM [rising, partial curve]"}, {"smiles": "Cc1cnc(CNc2ccnc(-c3cccnc3)n2)cn1", "AC50": "10 µM [rising, single point]"}, {"smiles": "COC(=O)CCc1c(C)nn(-c2ccccc2)c1C", "AC50": "6.31 µM [falling, partial curve]"}, {"smiles": "COc1ccccc1-c1nc(C(N)=O)c2[nH]c(=O)n(-c3cccc(C)c3)c2n1", "AC50": "12.6 µM [rising, partial curve]"}, {"smiles": "N#CCSc1nc2c(sc(=S)n2Cc2ccco2)c(=O)n1-c1ccc(F)cc1", "AC50": "5.01 µM [rising, partial curve]"}, {"smiles": "CCN(CC)C(=O)C1CCCN(c2ncnc3c2cnn3-c2cccc(C)c2)C1", "note": "(configuration not stated)", "AC50": "10 µM [rising, partial curve]"}, {"smiles": "O=C(O)C(CC(=O)N1CCOCC1)NCc1ccccc1", "note": "(configuration not stated)", "AC50": "0.00794 µM [falling, full curve, poor fit]"}, {"smiles": "COC(=O)c1oc2ccc(Br)cc2c1NC(C)=O", "AC50": "7.94 µM [rising, partial curve]"}, {"smiles": "CN1CCc2c(sc3c2c(=O)n(-c2cccc(Cl)c2)c2nncn32)C1", "AC50": "12.6 µM [falling, partial curve, poor fit]"}, {"smiles": "COc1cccc(Nc2ncc3nc(CCc4ccccc4)c(=O)n(C4CC4)c3n2)c1", "AC50": "10 µM [rising, partial curve]"}, {"smiles": "O=C(Nc1nc(-c2ccc3c(c2)OCO3)cs1)C1COc2ccccc2O1", "note": "(configuration not stated)", "AC50": "7.94 µM [falling, partial curve]"}, {"smiles": "Cc1nnc(SCCn2c(N3CCC(C)CC3)nc3c2c(=O)n(C)c(=O)n3C)s1", "AC50": "3.98 µM [falling, partial curve]"}, {"smiles": "Cc1ccc(Cn2c(=O)n(Cc3ccco3)c(=O)c3ccccc32)cc1", "AC50": "20 µM [rising, single point]"}, {"smiles": "COc1ccc(NC(=O)C2CCN(S(=O)(=O)c3ccc(OC)c(OC)c3)CC2)c(OC)c1", "AC50": "0.00316 µM [falling, full curve, poor fit]"}, {"smiles": "CCOC(=O)c1c(C)[nH]c(C(=O)COC(=O)C2CC(=O)N(Cc3ccccc3)C2)c1C", "note": "(configuration not stated)", "AC50": "10 µM [rising, partial curve]"}, {"smiles": "COc1ccc(-n2c(=O)c(-c3ccc(Cl)cc3)nc3cnc(N4CCOCC4)nc32)cc1", "AC50": "2 µM [rising, partial curve]"}, {"smiles": "O=C(c1ccccc1-c1ccccc1)N1CCN(c2ccccn2)CC1", "AC50": "7.94 µM [rising, partial curve, poor fit]"}, {"smiles": "CCN1C(=O)CSc2ccc(C(=O)NCCCN3CCOCC3)cc21", "AC50": "2 µM [falling, single point]"}, {"smiles": "O=C(NCc1ccc(F)cc1)N[C@@H](Cc1ccccc1)C(=O)O", "AC50": "12.6 µM [rising, single point]"}, {"smiles": "CCOC(=O)c1cnc2c(C(=O)OC)cccc2c1NCCN1CCOCC1", "AC50": "10 µM [rising, single point]"}, {"smiles": "Cc1oc2cc3oc(=O)c4c(c3cc2c1C)CCC4", "AC50": "0.398 µM [falling, partial curve]"}, {"smiles": "CCOC(=O)c1c(C)oc2c1c(C=NCc1ccccn1)c(O)c1ccccc12", "AC50": "31.6 µM [falling, single point]"}, {"smiles": "Cc1noc(C)c1CSc1ncnc2ccccc12", "AC50": "10 µM [rising, partial curve]"}, {"smiles": "CC(C(=O)N(C1CC1)C1(C(=O)Nc2ccccc2)CCCC1)N1C(=O)c2ccccc2C1=O", "note": "(configuration not stated)", "AC50": "10 µM [falling, single point]"}]}]}
